{"source": "patent US20250064875A1", "about": "“PHARMACEUTICAL COMPOSITION FOR PREVENTING OR TREATING MUSCLE DISEASES” (KOSA BIO INC., priority 2021, published 2025)", "key": {"sarcopenia animal model": {"test_system": "sarcopenia animal model", "experiment": "Sarcopenia animal model, body composition by DXA", "type": "in vivo", "conditions": "result in words, 14 days", "method": "Specifically, male C57BL/6 mice (7 weeks old, Samtako Bio Korea, Korea) were acclimatized, and their body weight (g), lean body weight (g), fat mass (g), and body fat percentage (%) were measured using dual-energy X-ray absorptiometry (DXA). […] A control group consisted of untreated 5 mice (normal mice) at day 0 of treatment. On days 7 and 14 of treatment, the mice were scanned using DXA to measure body weight, lean body weight, fat mass, and body fat percentage; the results are presented in FIG. 14 and Tables 2 and 3."}, "[1]": {"test_system": "C2C12 myoblast cells differentiated to myotubes", "experiment": "Microscopic observation of myotubes after dexamethasone", "type": "cell-based", "conditions": "10 μM dexamethasone for 24 hours; microscope; FIG. 2"}}, "note": "For at least one compound, name, drawing or mass did not settle the structure."}
{"smiles": "C[C@@H]1C[C@H]2[C@@H]3CCC4=CC(=O)C=C[C@]4(C)[C@@]3(F)[C@@H](O)C[C@]2(C)[C@@]1(O)C(=O)CO", "note": "[Dexamethasone, dexamethasone, reference compound]", "values": [{"measurement": "body weight of the mice", "setting": "sarcopenia animal model", "result": "significantly decreased"}, {"measurement": "lean body weight of the mice", "setting": "sarcopenia animal model", "result": "significantly decreased"}, {"measurement": "tissue areas of the mice", "setting": "sarcopenia animal model", "result": "significantly decreased"}, {"measurement": "myotube morphology", "setting": "[1]", "result": "thinner myotubes"}]}
